Data published in the supplement of paper PMC4604168 (melanoma cell lines).
The list shows a part of the results. Repeats are few or missing, and single values can be far off.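 Imaging used 1,536-well plates; nuclei positive for cleaved PARP by antibody were divided by total DNA-stained nuclei to yield the apoptosis fraction. Doses for screening kept most cells viable, and cell lines differ markedly in resting and induced cleaved-PARP levels.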

Key:
Test in all cases: cleaved PARP positive nuclei fraction relative to DMSO control; melanoma cells; higher = more apoptosis
Conditions in all cases: library dose: low library concentration; 72 h
501Mel = tested on: 501Mel
A101D = tested on: A101D
A2058 = tested on: A2058
C32 = tested on: C32
CBRC008 = tested on: CBRC008 (line from a melanoma biopsy)
CBRC014 = tested on: CBRC014 (line from a melanoma biopsy)
CBRC016 = tested on: CBRC016 (line from a melanoma biopsy)
CBRC017 = tested on: CBRC017 (line from a melanoma biopsy)
COLO792 = tested on: COLO792
COLO800 = tested on: COLO800
COLO829 = tested on: COLO829
G361 = tested on: G361
IPC-298 = tested on: IPC-298
IST-MEL1 = tested on: IST-MEL1
LB2518-MEL = tested on: LB2518-MEL
LOXIMVI = tested on: LOXIMVI

Row | Compound | cleaved PARP positive nuclei fraction (501Mel) [%] | cleaved PARP positive nuclei fraction (A101D) [%] | cleaved PARP positive nuclei fraction (A2058) [%] | cleaved PARP positive nuclei fraction (C32) [%] | cleaved PARP positive nuclei fraction (CBRC008) [%] | cleaved PARP positive nuclei fraction (CBRC014) [%] | cleaved PARP positive nuclei fraction (CBRC016) [%] | cleaved PARP positive nuclei fraction (CBRC017) [%] | cleaved PARP positive nuclei fraction (COLO792) [%] | cleaved PARP positive nuclei fraction (COLO800) [%] | cleaved PARP positive nuclei fraction (COLO829) [%] | cleaved PARP positive nuclei fraction (G361) [%] | cleaved PARP positive nuclei fraction (IPC-298) [%] | cleaved PARP positive nuclei fraction (IST-MEL1) [%] | cleaved PARP positive nuclei fraction (LB2518-MEL) [%] | cleaved PARP positive nuclei fraction (LOXIMVI) [%]
1 | CNC(=O)c1cc(Oc2ccc(NC(=O)Nc3ccc(Cl)c(C(F)(F)F)c3)cc2)ccn1 [sorafenib] + c1cc(-c2cnn3cc(-c4ccc(OCCN5CCCCC5)cc4)cnc23)ccn1 [Dorsomorphin] (first compound 0.4 µM, partner dose 0.4 µM) | 88.6 | 18.8 | 78.2 | 45.5 | 37 | 104 | 39.2 | 157 | 69.7 | 31.6 | 63.8 | 48 | 46.9 | 236 | 68.8 | 266
2 | Nc1ccn([C@@H]2O[C@H](CO)[C@@H](O)C2(F)F)c(=O)n1 [gemcitabine] + CCc1ccc(CCOc2ccc(CC3SC(=O)NC3=O)cc2)nc1 [pioglitazone] (first compound 0.0004 µM, partner dose 2 µM) | 98.5 | 29.1 | 182 | 558 | 93.3 | 1000 | 115 | 105 | 112 | 59.5 | 79.9 | 84.2 | 198 | 124 | 80.8 | 126
3 | C[C@@H](Oc1cc(-c2cnn(C3CCNCC3)c2)cnc1N)c1c(Cl)ccc(F)c1Cl [Crizotinib] + O=S(=O)(c1ccccc1)N(CC(F)(F)F)c1ccc(C(O)(C(F)(F)F)C(F)(F)F)cc1 [T0901317] (first compound 0.2 µM, partner dose 1.4 µM) | 68 | 19.9 | 176 | 89.3 | 83 | 81.6 | 34.2 | 103 | 68 | 69.6 | 43 | 185 | 102 | 115 | 70.2 | 173
4 | CS(=O)(=O)CCNCc1ccc(-c2ccc3ncnc(Nc4ccc(OCc5cccc(F)c5)c(Cl)c4)c3c2)o1 [lapatinib] + Oc1cc(-c2nc(-c3ccccc3)[nH]c2-c2ccncc2)ccc1Cl [L779450] (first compound 0.8 µM, partner dose 0.2 µM) | 49.2 | 13.1 | 58.3 | 103 | 163 | 99.9 | 61.5 | 107 | 109 | 109 | 89 | 56.2 | 42.3 | 81.2 | 81.5 | 82.5
5 | Cc1cc(Nc2cc(N3CCN(C)CC3)nc(/C=C/c3ccccc3)n2)n[nH]1 + Oc1nc(-c2ccc(C(F)(F)F)cc2)nc2c1CSCC2 [XAV939] (first compound 0.04 µM, partner dose 2 µM) | 27.5 | 17.6 | 24.9 | 40.6 | 149 | 90.2 | 15.5 | 81.1 | 44.2 | 129 | 82.2 | 139 | 63.7 | 45.4 | 82.2 | 56.4
6 | CS(=O)(=O)CCNCc1ccc(-c2ccc3ncnc(Nc4ccc(OCc5cccc(F)c5)c(Cl)c4)c3c2)o1 [lapatinib] + CCN(CC)CCCCNc1ncc2cc(-c3cc(OC)cc(OC)c3)c(NC(=O)NC(C)(C)C)nc2n1 [PD173074] (first compound 0.8 µM, partner dose 0.1 µM) | 165 | 22.1 | 91.5 | 46.1 | 198 | 108 | 20.8 | 123 | 224 | 94.3 | 103 | 193 | 95.4 | 91.5 | 252 | 28.8
7 | C[C@@H](Oc1cc(-c2cnn(C3CCNCC3)c2)cnc1N)c1c(Cl)ccc(F)c1Cl [Crizotinib] + COc1ccc(COc2ccc(Cc3cnc(N)nc3N)cc2OC)cc1 [GW2580] (first compound 0.2 µM, partner dose 1 µM) | 31.6 | 16.7 | 136 | 39.4 | 65.1 | 85.6 | 68.1 | 78.7 | 87.4 | 88.8 | 36.1 | 64.5 | 125 | 91.3 | 36.8 | 92.9
8 | C=C(c1ccc(C(=O)O)cc1)c1cc2c(cc1C)C(C)(C)CCC2(C)C [Bexarotene] + O=c1cc(-c2cccc3c2Sc2ccccc2S3)oc(N2CCOCC2)c1 [KU55933] (first compound 2 µM, partner dose 1 µM) | 108 | 7.4 | 162 | 227 | 371 | 98.7 | 74 | 111 | 55.6 | 23.3 | 157 | 64.6 | 57.1 | 110 | 35.5 | 109
9 | Cc1cc(Nc2cc(N3CCN(C)CC3)nc(/C=C/c3ccccc3)n2)n[nH]1 + Cn1cc(/C=C2\C(=O)Nc3cccnc32)c2ccccc21 [GW441756] (first compound 0.04 µM, partner dose 0.4 µM) | 33 | 35.6 | 52.5 | 53.6 | 50.1 | 99.3 | 35.9 | 96.2 | 76.3 | 29.4 | 184 | 93.4 | 161 | 57.3 | 61 | 94.1
10 | CS(=O)(=O)CCNCc1ccc(-c2ccc3ncnc(Nc4ccc(OCc5cccc(F)c5)c(Cl)c4)c3c2)o1 [lapatinib] + O=C1NC(=O)/C(=C/c2ccc(-c3ccc(F)cc3O)o2)S1 [AS252424] (first compound 0.8 µM, partner dose 1 µM) | 66.2 | 27.2 | 72.1 | 81.1 | 385 | 174 | 77.1 | 109 | 247 | 42.5 | 52.7 | 185 | 65.9 | 284 | 31.5 | 263
11 | C[C@@H](Oc1cc(-c2cnn(C3CCNCC3)c2)cnc1N)c1c(Cl)ccc(F)c1Cl [Crizotinib] + CC(C)CCN1c2nc(Nc3cc(F)c(O)c(F)c3)ncc2N(C)C(=O)C1C [BID1870] (first compound 0.2 µM, partner dose 0.2 µM) | 61.5 | 4.9 | 104 | 75.5 | 195 | 137 | 60.2 | 322 | 73.2 | 11.8 | 56.2 | 96.5 | 60.8 | 13.4 | 63.1 | 68.1
12 | O=C(O)[C@@H]1[O][Sb](=[O])([O][Sb]2(=[O])[O][C@H]([C@H](O)CO)[C@H](O)[C@H](C(=O)O)[O]2)[O][C@H]([C@H](O)CO)[C@@H]1O (some centres undefined) [stibogluconate] + COc1ccc(-c2ccc3c(N4CCOCC4)nc(N4C[C@@H](C)O[C@@H](C)C4)nc3n2)cc1CO [KU0063794] (first compound 2 µM, partner dose 0.02 µM) | 36.6 | 22.8 | 122 | 33.8 | 104 | 108 | 40.4 | 79.5 | 93.7 | 82.6 | 110 | 135 | 21.4 | 62.9 | 68.2 | 199
13 | C=C(c1ccc(C(=O)O)cc1)c1cc2c(cc1C)C(C)(C)CCC2(C)C [Bexarotene] + O=C(Nc1ccccc1)c1cc([N+](=O)[O-])ccc1Cl [GW9662] (first compound 2 µM, partner dose 2 µM) | 118 | 29.1 | 185 | 91.7 | 145 | 223 | 268 | 132 | 135 | 83.1 | 111 | 203 | 174 | 59.2 | 105 | 82.6
14 | Nc1ncn([C@H]2C[C@H](O)[C@@H](CO)O2)c(=O)n1 [decitabine] + COc1ccc2c(c1)CCC1C2CCC2(C)C(NCCCCCCN3C(=O)C=CC3=O)CCC12 [U73122] (first compound 0.1 µM, partner dose 0.4 µM) | 74.8 | 26.5 | 17.1 | 35.1 | 81.3 | 99.1 | 122 | 123 | 60.4 | 95.6 | 151 | 132 | 132 | 119 | 93.1 | 218
15 | C[C@@H](Oc1cc(-c2cnn(C3CCNCC3)c2)cnc1N)c1c(Cl)ccc(F)c1Cl [Crizotinib] + O=C(O)C(=O)Nc1sc2c(c1C(=O)O)CCNC2 [TCS401] (first compound 0.2 µM, partner dose 1.66667 µM) | 76.5 | 14.5 | 82.7 | 28 | 136 | 91.8 | 66 | 210 | 73.5 | 25.4 | 173 | 136 | 92.8 | 69.8 | 101 | 28.5
16 | C=C(c1ccc(C(=O)O)cc1)c1cc2c(cc1C)C(C)(C)CCC2(C)C [Bexarotene] + N#Cc1c(O)c2c(-c3ccc(-c4ccccc4O)cc3)csc2[nH]c1=O [A769662] (first compound 2 µM, partner dose 2 µM) | 83.6 | 43.6 | 41.4 | 40.5 | 131 | 132 | 339 | 171 | 140 | 41.3 | 195 | 131 | 368 | 51.3 | 63.9 | 60.8
17 | C[C@@H](Oc1cc(-c2cnn(C3CCNCC3)c2)cnc1N)c1c(Cl)ccc(F)c1Cl [Crizotinib] + COc1ccc(-c2ccc3c(N4CCOCC4)nc(N4C[C@@H](C)O[C@@H](C)C4)nc3n2)cc1CO [KU0063794] (first compound 0.2 µM, partner dose 0.02 µM) | 69 | 38.4 | 170 | 126 | 88.1 | 96.4 | 26.7 | 114 | 72.8 | 208 | 60.7 | 90.5 | 102 | 213 | 69.3 | 102
18 | CC(C)C[C@H](NC(=O)[C@H](Cc1ccccc1)NC(=O)c1cnccn1)B(O)O [Bortezomib] + COC(=O)c1sccc1S(=O)(=O)Nc1ccc(Nc2ccccc2)cc1OC [GSK0660] (first compound 0.001 µM, partner dose 1 µM) | 333 | 105 | 95.6 | 130 | 535 | 262 | 419 | 232 | 58.8 | 66.9 | 113 | 3890 | 238 | 117 | 164 | 102
19 | O=C(O)[C@@H]1[O][Sb](=[O])([O][Sb]2(=[O])[O][C@H]([C@H](O)CO)[C@H](O)[C@H](C(=O)O)[O]2)[O][C@H]([C@H](O)CO)[C@@H]1O (some centres undefined) [stibogluconate] + O=c1cc(-c2cccc3c2Sc2ccccc2S3)oc(N2CCOCC2)c1 [KU55933] (first compound 2 µM, partner dose 1 µM) | 70.2 | 27.9 | 84.2 | 169 | 48.3 | 122 | 24.3 | 91.1 | 81.3 | 131 | 50.9 | 127 | 93.4 | 28.7 | 135 | 48.4

A section from further up, for reference:
Row | Compound | cleaved PARP positive nuclei fraction (501Mel) [%] | cleaved PARP positive nuclei fraction (A101D) [%] | cleaved PARP positive nuclei fraction (A2058) [%] | cleaved PARP positive nuclei fraction (C32) [%] | cleaved PARP positive nuclei fraction (CBRC008) [%] | cleaved PARP positive nuclei fraction (CBRC014) [%] | cleaved PARP positive nuclei fraction (CBRC016) [%] | cleaved PARP positive nuclei fraction (CBRC017) [%] | cleaved PARP positive nuclei fraction (COLO792) [%] | cleaved PARP positive nuclei fraction (COLO800) [%] | cleaved PARP positive nuclei fraction (COLO829) [%] | cleaved PARP positive nuclei fraction (G361) [%] | cleaved PARP positive nuclei fraction (IPC-298) [%] | cleaved PARP positive nuclei fraction (IST-MEL1) [%] | cleaved PARP positive nuclei fraction (LB2518-MEL) [%] | cleaved PARP positive nuclei fraction (LOXIMVI) [%]
1 | CNC(=O)c1cc(Oc2ccc(NC(=O)Nc3ccc(Cl)c(C(F)(F)F)c3)cc2)ccn1 [sorafenib] + c1cc(-c2cnn3cc(-c4ccc(OCCN5CCCCC5)cc4)cnc23)ccn1 [Dorsomorphin] (first compound 0.4 µM, partner dose 0.4 µM) | 88.6 | 18.8 | 78.2 | 45.5 | 37 | 104 | 39.2 | 157 | 69.7 | 31.6 | 63.8 | 48 | 46.9 | 236 | 68.8 | 266
2 | Nc1ccn([C@@H]2O[C@H](CO)[C@@H](O)C2(F)F)c(=O)n1 [gemcitabine] + CCc1ccc(CCOc2ccc(CC3SC(=O)NC3=O)cc2)nc1 [pioglitazone] (first compound 0.0004 µM, partner dose 2 µM) | 98.5 | 29.1 | 182 | 558 | 93.3 | 1000 | 115 | 105 | 112 | 59.5 | 79.9 | 84.2 | 198 | 124 | 80.8 | 126
